PubChem BioAssay AID1259254 – NCATS, 2017
In all, the deposit lists about 59,000 reagents; this is an unselected part. In the full data, about 1,550 (2.6%) were called active. 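G2 share is only a proxy for re-replication; each gene was hit by three separate siRNAs, and active genes were retested.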 Raw values are not corrected between plates. Reagents against one gene are numbered here. Not stated in the record: the amount of reagent.

- Purpose: 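Finding genes that stop cells copying their DNA twice in one cycle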 (primary screen)
- Cells: human HCT116 colorectal cancer cells
- Knock-down reagent: single siRNA against human genes
- Time to read-out: 3 days
- Detection: 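Nuclei stained with Hoechst and imaged; cell-cycle phase assigned by DNA content; G2 share scaled per plate, non-targeting siRNA 0%, GMNN siRNA 100%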
- Direction: G2 robust z-score and G2 cells, % of GMNN control: higher = more G2 cells, more excess DNA replication; raw share of cells in G2: higher = larger share of cells with G2 DNA content
- Hit rule: 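An siRNA counts as active if its G2 robust z-score lies at least 5 MADs above the screen median; here such calls match roughly 38% of GMNN control or more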

gene symbol | siRNA no. | G2 robust z-score | G2 cells, % of GMNN control | raw share of cells in G2 (%) | Outcome
ADAMTSL3 | 1 | -0.0448 | 2.65 | 3.73 | inactive
ADAMTSL3 | 2 | 0.912 | 9.39 | 10.2 | inactive
ADAMTSL3 | 3 | -0.901 | -3.37 | 2.57 | inactive
DLGAP2 | 1 | -0.0507 | 2.61 | 5.64 | inactive
DLGAP2 | 2 | 0.333 | 5.31 | 7.13 | inactive
DLGAP2 | 3 | 0.766 | 8.36 | 8.33 | inactive
DLGAP2 | 4 | 1.25 | 11.7 | 8.15 | inactive
DLGAP2 | 5 | -0.021 | 2.82 | 4.49 | inactive
DLGAP2 | 6 | -0.487 | -0.456 | 2.96 | inactive
POU5F1 | 1 | 0.446 | 6.1 | 5.88 | inactive
POU5F1 | 2 | 0.412 | 5.86 | 7.59 | inactive
POU5F1 | 3 | 1.17 | 11.2 | 7.17 | inactive
CDC14C | 1 | -1.08 | -4.66 | 2.09 | inactive
CDC14C | 2 | -1.29 | -6.12 | 2.8 | inactive
CDC14C | 3 | 1.26 | 11.8 | 7.87 | inactive
FAM178B | 1 | -0.197 | 1.58 | 4.46 | inactive
FAM178B | 2 | 0.235 | 4.62 | 6.3 | inactive
FAM178B | 3 | -0.753 | -2.33 | 2.52 | inactive
IGF2R | 1 | 1.69 | 14.8 | 10.4 | inactive
IGF2R | 2 | -0.3 | 0.856 | 6.01 | inactive
IGF2R | 3 | -1.09 | -4.68 | 2.49 | inactive
ZBTB16 | 1 | 0.836 | 8.85 | 6.47 | inactive
ZBTB16 | 2 | -1.56 | -8.03 | 2.41 | inactive
ZBTB16 | 3 | -0.274 | 1.04 | 3.78 | inactive

Laid out differently: entries from further up
{"gene symbol":"DLGAP2","siRNA no.":4,"G2 robust z-score":1.25,"G2 cells, % of GMNN control":11.7,"raw share of cells in G2 (%)":8.15,"Outcome":"inactive"}
{"gene symbol":"DLGAP2","siRNA no.":5,"G2 robust z-score":-0.021,"G2 cells, % of GMNN control":2.82,"raw share of cells in G2 (%)":4.49,"Outcome":"inactive"}
{"gene symbol":"DLGAP2","siRNA no.":6,"G2 robust z-score":-0.487,"G2 cells, % of GMNN control":-0.456,"raw share of cells in G2 (%)":2.96,"Outcome":"inactive"}
{"gene symbol":"POU5F1","siRNA no.":1,"G2 robust z-score":0.446,"G2 cells, % of GMNN control":6.1,"raw share of cells in G2 (%)":5.88,"Outcome":"inactive"}
{"gene symbol":"POU5F1","siRNA no.":2,"G2 robust z-score":0.412,"G2 cells, % of GMNN control":5.86,"raw share of cells in G2 (%)":7.59,"Outcome":"inactive"}
{"gene symbol":"POU5F1","siRNA no.":3,"G2 robust z-score":1.17,"G2 cells, % of GMNN control":11.2,"raw share of cells in G2 (%)":7.17,"Outcome":"inactive"}
{"gene symbol":"CDC14C","siRNA no.":1,"G2 robust z-score":-1.08,"G2 cells, % of GMNN control":-4.66,"raw share of cells in G2 (%)":2.09,"Outcome":"inactive"}
{"gene symbol":"CDC14C","siRNA no.":2,"G2 robust z-score":-1.29,"G2 cells, % of GMNN control":-6.12,"raw share of cells in G2 (%)":2.8,"Outcome":"inactive"}
{"gene symbol":"CDC14C","siRNA no.":3,"G2 robust z-score":1.26,"G2 cells, % of GMNN control":11.8,"raw share of cells in G2 (%)":7.87,"Outcome":"inactive"}
{"gene symbol":"FAM178B","siRNA no.":1,"G2 robust z-score":-0.197,"G2 cells, % of GMNN control":1.58,"raw share of cells in G2 (%)":4.46,"Outcome":"inactive"}
{"gene symbol":"FAM178B","siRNA no.":2,"G2 robust z-score":0.235,"G2 cells, % of GMNN control":4.62,"raw share of cells in G2 (%)":6.3,"Outcome":"inactive"}

Further entries:
gene symbol | siRNA no. | G2 robust z-score | G2 cells, % of GMNN control | raw share of cells in G2 (%) | Outcome
CTU2 | 1 | -0.0426 | 2.67 | 4.9 | inactive
CTU2 | 2 | -0.752 | -2.32 | 2.24 | inactive
CTU2 | 3 | -0.712 | -2.04 | 3.37 | inactive
ZKSCAN1 | 1 | 1.57 | 14 | 9.08 | inactive
ZKSCAN1 | 2 | 4.2 | 32.5 | 19.3 | inactive
ZKSCAN1 | 3 | -0.842 | -2.95 | 3.16 | inactive
RPLP2P1 | 1 | -0.387 | 0.247 | 3.72 | inactive
RPLP2P1 | 2 | -0.941 | -3.65 | 2.03 | inactive
RPLP2P1 | 3 | -0.942 | -3.66 | 1.88 | inactive
LPAR3 | 1 | 0.0959 | 3.64 | 7.14 | inactive
LPAR3 | 2 | -0.0399 | 2.69 | 5.46 | inactive
LPAR3 | 3 | -0.065 | 2.51 | 4.04 | inactive
ZBTB11 | 1 | -0.664 | -1.7 | 2.19 | inactive
ZBTB11 | 2 | 4.13 | 32 | 20.4 | inactive
ZBTB11 | 3 | -0.585 | -1.15 | 3.27 | inactive
MICOS13 | 1 | 1.26 | 11.8 | 8.63 | inactive
MICOS13 | 2 | 0.421 | 5.93 | 4.98 | inactive
MICOS13 | 3 | -0.409 | 0.0896 | 2.61 | inactive
MAD2L2 | 1 | 1.85 | 16 | 12.5 | inactive
MAD2L2 | 2 | 3.78 | 29.5 | 16.3 | inactive
MAD2L2 | 3 | 0.219 | 4.51 | 5.05 | inactive
UCN3 | 1 | 1.03 | 10.2 | 6.37 | inactive
UCN3 | 2 | -0.683 | -1.84 | 1.28 | inactive
UCN3 | 3 | 1.61 | 14.3 | 9.82 | inactive
PRKCE | 1 | 0.957 | 9.7 | 8.81 | inactive
PRKCE | 2 | -1.12 | -4.92 | 3.75 | inactive
PRKCE | 3 | -0.581 | -1.12 | 3.63 | inactive
IFT46 | 1 | -0.284 | 0.966 | 4.73 | inactive
IFT46 | 2 | 0.415 | 5.89 | 7.27 | inactive
IFT46 | 3 | -0.113 | 2.17 | 3.72 | inactive
ADH1A | 1 | -0.489 | -0.473 | 4.56 | inactive
ADH1A | 2 | 0.603 | 7.21 | 7.64 | inactive
ADH1A | 3 | 0.245 | 4.69 | 5.74 | inactive
PON2 | 1 | 0.103 | 3.69 | 6.25 | inactive
PON2 | 2 | -0.899 | -3.36 | 3.4 | inactive
PON2 | 3 | 0.389 | 5.7 | 6.04 | inactive
LINC00545 | 1 | 0.0316 | 3.19 | 4.2 | inactive
LINC00545 | 2 | 1.54 | 13.8 | 8.95 | inactive
LINC00545 | 3 | -0.396 | 0.179 | 3.48 | inactive
CLEC6A | 1 | 0.00604 | 3.01 | 5.3 | inactive
CLEC6A | 2 | 2.04 | 17.3 | 8.5 | inactive
CLEC6A | 3 | 0.471 | 6.28 | 3.65 | inactive
CRB3 | 1 | 0.316 | 5.19 | 4.57 | inactive
CRB3 | 2 | 1.01 | 10.1 | 8.36 | inactive
CRB3 | 3 | -0.00546 | 2.93 | 3.92 | inactive
